These are yes or no findings as the source states them, for the method shown. In cells and extracts the contact can be indirect. Some entries that bind do so weakly or less than the wild type.
Biological target: ZDHHC5 (transfected into HEK293T cells) (UniProt Q9C0B5)
Assay: co-IP; HEK293T cells transfected with SSTR5 and ZDHHC5 plasmids; IP-lysis buffer (50 mM Tris HCl pH 7.4, 150 mM NaCl, 1 mM EDTA, 1% Triton X-100), magnetic beads, 4 ug antibody or IgG; also with lomitapide treatment (inhibits their combination)

Sequences of proteins named here, by UniProt entry; tags and fusion partners are left off.
UniProt Q9C0B5: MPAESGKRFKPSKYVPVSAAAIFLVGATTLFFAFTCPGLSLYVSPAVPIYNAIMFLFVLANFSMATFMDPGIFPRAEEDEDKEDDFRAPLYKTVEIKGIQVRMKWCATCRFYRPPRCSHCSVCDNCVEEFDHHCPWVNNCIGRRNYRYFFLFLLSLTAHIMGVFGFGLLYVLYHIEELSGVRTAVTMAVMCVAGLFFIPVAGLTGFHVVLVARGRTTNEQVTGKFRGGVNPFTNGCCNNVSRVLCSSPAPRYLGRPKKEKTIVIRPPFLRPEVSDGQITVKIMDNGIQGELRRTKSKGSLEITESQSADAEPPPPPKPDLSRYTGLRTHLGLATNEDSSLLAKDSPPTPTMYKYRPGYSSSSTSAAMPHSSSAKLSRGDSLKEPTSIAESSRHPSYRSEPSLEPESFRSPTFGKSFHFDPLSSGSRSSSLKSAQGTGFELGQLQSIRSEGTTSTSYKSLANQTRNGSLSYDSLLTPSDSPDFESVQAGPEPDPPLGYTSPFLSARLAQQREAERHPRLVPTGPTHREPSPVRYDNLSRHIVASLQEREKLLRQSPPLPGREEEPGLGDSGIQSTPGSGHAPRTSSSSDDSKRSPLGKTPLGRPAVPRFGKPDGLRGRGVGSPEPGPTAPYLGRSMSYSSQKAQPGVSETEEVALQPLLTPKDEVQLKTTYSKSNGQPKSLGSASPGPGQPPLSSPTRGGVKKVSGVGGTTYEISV
UniProt P35346: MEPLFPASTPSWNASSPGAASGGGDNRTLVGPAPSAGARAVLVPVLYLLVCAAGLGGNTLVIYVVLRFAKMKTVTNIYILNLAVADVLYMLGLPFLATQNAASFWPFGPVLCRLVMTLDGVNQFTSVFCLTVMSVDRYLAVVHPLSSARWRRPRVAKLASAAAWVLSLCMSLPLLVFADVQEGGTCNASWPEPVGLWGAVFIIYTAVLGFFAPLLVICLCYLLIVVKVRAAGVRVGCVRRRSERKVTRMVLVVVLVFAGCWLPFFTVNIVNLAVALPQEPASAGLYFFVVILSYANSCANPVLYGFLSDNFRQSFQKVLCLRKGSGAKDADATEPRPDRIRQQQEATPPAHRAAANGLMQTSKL

Question: With “SSTR5 (transfected into HEK293T cells) (from UniProt P35346 1-364) (receptor)” as the substance, how does the binding read?
Answer: The binding was “binds”.
